Results taken from PubChem BioAssay AID1347076 (National Center for Advancing Translational Sciences (NCATS), 2019).
About 13,000 (3.2%) of roughly 400,000 compounds were called active. Inconclusive results, whose numbers are uncertain, are shown with a selection of clear calls. Calls follow the shape of the dose curve; as a rule, active = well fitted cell-killing curve with a large enough effect; inconclusive = small, poorly fitted or top-dose-only effect, or effect the other way; inactive = flat fitted curve, though single readings scatter. A potency beside an inconclusive call is a rough fit, not a confirmed value.

Assay: qHTS assay for MDR1-selective chemotherapeutics: Primary screen using the drug-selected MDR subline cells KB-V1; also: nearly all actives have a fitted effect of over 60% in size
Details: KB-V1 MDR cells viability, CellTiter-Glo, 72 h; series mostly up to 46.1 µM
Method in brief: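 Drug-selected KB-V1 cells, grown in DMEM lacking phenol red with 10% FBS, receive compound titrations; after three days at 37 degrees C, surviving cell ATP is quantified by CellTiter-Glo luminescence and responses normalized and curve-fitted.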
Potency is read from the fitted curve at half-maximal effect.

Structure (SMILES) | Potency
CC1CCN(c2nc(-c3cccnc3)nc3scc(-c4ccccc4)c23)CC1 | inactive
CCOc1ncccc1C(=O)NCCc1ccc(Cl)cc1 | inactive
Cc1ccc(CN(C(=O)c2sc3ccccc3c2Cl)C2CCS(=O)(=O)C2)cc1 (stereo not given) | inconclusive: 10.3 µM [cytotoxic, partial curve, poor fit]
Cc1ccc(S(=O)(=O)Nc2ccc3c(c2)n(C)c(=O)n3C)c(C)c1 | inactive
Cc1ccc(C)c2nc3sc(C(=O)N4CCOCC4)c(N)c3cc12 | inconclusive: 29.1 µM [cytotoxic, single point]
CCc1cccc2c(C(=O)COC(=O)c3ccc([N+](=O)[O-])s3)c[nH]c12 | inactive
Nc1nnc(SCC(=O)OCC(=O)NC23CC4CC(CC(C4)C2)C3)s1 | inactive
S=C1NC[C@H](CC2CCCCC2)N1CCc1cccc2ccccc12 | inconclusive: 16.4 µM [cytotoxic, partial curve, poor fit]
CCOc1cc(/C=N/NC(=O)c2ccncc2)cc(Cl)c1OS(C)(=O)=O | inactive
COc1ccc(C(=O)c2c(-c3ccc(OC)cc3)oc3ccc(-c4ccc(OC)nc4)cc23)cc1 | inactive
Cc1ncoc1C(=O)NC1CCCc2c1cnn2-c1ccc(C(C)(C)C)cc1 (stereo not given) | inactive
CCOc1cc(C(=S)N2CCOCC2)ccc1OC | inactive
CC1Cc2ccccc2N1C(=O)COc1ccc2c(c1)OCO2 (stereo not given) | inconclusive: 32.6 µM [cytotoxic, single point]
CCOC(=O)C1=C(COc2ccc(C)cc2)NC(=O)NC1c1cc(C)ccc1C (stereo not given) | inconclusive: 6.51 µM [cytotoxic, full curve]
CC(C)NC(=S)Nc1ccc2nc3n(c(=O)c2c1)CCCCC3 | inconclusive: 18.4 µM [cytotoxic, partial curve, poor fit]
O=C(Cn1c(NCCO)nc2ccccc21)Nc1ccc2c(c1)OCCCO2 | inactive
Cc1cc(C)nc(N/N=C/c2ccccc2OCc2ccc(Cl)cc2)n1 | inconclusive: 29.1 µM [cytotoxic, single point]
O=C(NCCc1ccc(F)cc1)C(=O)NCC(c1cccs1)S(=O)(=O)c1ccc(Cl)cc1 (stereo not given) | inactive
Cc1cccc(NC(=O)CSc2nnc([C@@H]3CCCN3C(=O)OC(C)(C)C)o2)c1C | inconclusive: 18.4 µM [cytotoxic, single point]
Cc1ccc(S(=O)(=O)N2CCN(S(=O)(=O)c3c(C)n[nH]c3C)CC2)cc1C | inactive
Cc1ccc(C)c(N(C)C(=O)c2cc3c(s2)-c2ccccc2OC3)c1 | inconclusive: 18.4 µM [cytotoxic, single point]
O=C(c1ccco1)N1CCN(C(=O)c2ccccc2[N+](=O)[O-])CC1 | inconclusive: 29.1 µM [rising, single point]
Cc1cccc(NC(=O)C2CCCN(S(=O)(=O)c3ccc4c(c3)oc(=O)n4C)C2)c1C (stereo not given) | inactive
Cc1onc(-c2ccccc2)c1C(=O)Nc1ncc([N+](=O)[O-])s1 | active: 23.1 µM
CCOc1cc(CNc2ccc(N3CCCCC3)cc2)cc(Br)c1OCC(=O)NC(C)(C)C | active: 14.6 µM

Structure (SMILES) | Potency
COc1ccc(CCNC(=O)c2ccccc2N(C)S(=O)(=O)c2ccccc2)cc1 | inconclusive: 10.3 µM [cytotoxic, partial curve]
Cc1noc(C)c1COc1cccc(C(=O)Nc2ccccc2N2CCOCC2)c1 | inconclusive: 8.2 µM [cytotoxic, partial curve, poor fit]
O=C(NCCc1nc2ccccc2[nH]1)/C(=C/c1ccco1)NC(=O)c1ccco1 | inconclusive: 18.4 µM [rising, single point]
COc1ccc(CN2CCN(Cc3ccc(C(F)(F)F)cc3)CC2)cc1 | inactive
Cc1cc(C)c2cc(C=O)c(Cl)nc2c1 | inconclusive: 16.4 µM [cytotoxic, single point]
CNC(C)C(=O)NC(C(=O)N1CCCC1C(=O)Nc1ccc2ncccc2c1)C(C)C (stereo not given) | inactive
COC(=O)c1c(-c2c(Cl)cccc2Cl)noc1C(=O)NN | inactive
Cc1cccc(NC(=O)c2ccccc2OCC(=O)c2ccccc2)c1 | inconclusive: 29.1 µM [cytotoxic, single point]
CN(CC(=O)N(C)CC(=O)Nc1c(Cl)cccc1Cl)Cc1ccc(Br)s1 | inactive
COc1ccc(OC)c(C(c2nnnn2C2CCCC2)N2CCN(c3ccccc3)CC2)c1 (stereo not given) | inconclusive: 29.1 µM [cytotoxic, single point]
CCCCNC(=O)Nc1nc(SCC(=O)OCC)n[nH]1 | inconclusive: 29.1 µM [cytotoxic, single point]
CCCOC(=O)Nc1ccccc1C(N)=O | inconclusive: 13 µM [rising, partial curve, poor fit]
COc1ccc(S(=O)(=O)N(Cc2ccccc2)c2ccccc2C(=O)N2CCOCC2)cc1 | active: 13 µM
Cc1ccc(C(NC(=O)N2CCCC2)C(Cl)(Cl)Cl)cc1F (stereo not given) | inconclusive: 20.6 µM [cytotoxic, single point]
O=Cc1cccnc1SCc1ccccc1 | active: 14.6 µM
Cc1ccc(NC(=O)[C@H](C)NC(=O)C2CCN(C(=O)[C@@H](NC(=O)OC(C)(C)C)C(C)C)CC2)cc1 | inactive
NC(=O)Cc1ccc(C(=O)c2ccccc2F)s1 | inconclusive: 29.1 µM [rising, single point]
NC(=O)[C@H]1CC2(CC(c3cccc(NC(=O)[C@H]4CCC(=O)N4)c3)=NO2)CN1C(=O)c1cc([N+](=O)[O-])cc([N+](=O)[O-])c1 (stereo not given in full) | inactive
CC(Sc1nnnn1-c1ccccc1)C(=O)Nc1ccc(Cl)cn1 (stereo not given) | active: 18.4 µM
COc1ccccc1NC(=O)CN1CCCCCC1 | inactive
Clc1cccc(CSC2=NCCCN2)c1 | inconclusive: 10.3 µM [rising, partial curve, poor fit]
c1ccc(-c2nnc(-c3ccco3)n2-c2ccccc2)cc1 | active: 18.4 µM
CC(C)c1ccc(NC(=S)N(C)CCc2ccccn2)cc1 | active: 23.1 µM
COCCSc1ccccc1C(=O)N1CCc2ccccc21 | inconclusive: 14.6 µM [cytotoxic, single point]
Cn1ncc2c1ncn1nc(COc3ccc4ccccc4c3)nc21 | inactive

Structure (SMILES) | Potency
COc1ccc(CCN2CC(C(=O)NCCc3ncccc3C)CCC2=O)cc1 (stereo not given) | inactive
Cc1ccc(C(=O)NCC(c2ccc3c(c2)OCO3)N2CCN(c3ccc(F)cc3)CC2)cc1 (stereo not given) | inactive
O=C(Nc1cccc2[nH]c([C@H]3C[C@H](O)[C@@H](CO)O3)nc12)NC(c1ccccc1)c1ccccc1 | inactive
COc1ccc(NC(=O)Nc2ccc3c(c2)N(C)C(=O)CS3)cc1Cl | inconclusive: 16.4 µM [cytotoxic, partial curve, poor fit]
Cc1ccc2nc(NC(=O)CCNS(=O)(=O)c3cccs3)sc2c1 | inconclusive: 20.6 µM [cytotoxic, single point]
CC(=O)c1cccc(NC(=O)C(C)OC(=O)c2ccc(-n3cnnn3)cc2)c1 (stereo not given) | inactive
OC(c1cccc(Cl)c1)c1ncc(-c2cccc(C(F)(F)F)c2)[nH]1 (stereo not given) | inactive
CC1CC(C)CN(CC(O)COCCOc2ccc(Br)cc2)C1 (stereo not given) | inconclusive: 16.4 µM [cytotoxic, partial curve, poor fit]
Cc1cc2nccc(/C=C/c3ccc(N(C)C)cc3)c2cc1C | inactive
COC(=O)C1=C(Nc2ccc(OC)cc2)C=C(C)C(C(=O)OC)C1c1ccc(C)cc1 (stereo not given) | inconclusive: 7.31 µM [cytotoxic, partial curve, poor fit]
CCN1CCN(C2=C(NS(=O)(=O)c3ccc(Br)cc3)C(=O)c3ccccc3C2=O)CC1 | inconclusive: 29.1 µM [cytotoxic, single point]
Cc1ccc(-c2cc(C(=O)O)n[nH]2)s1 | inactive
CCCOc1cc(N(CC)CC)ccc1/C=C(/C#N)c1nc2ccc(C)cc2[nH]1 | inconclusive: 8.2 µM [cytotoxic, partial curve, poor fit]
COc1ccccc1N1CCN(C(=O)c2sc3nc(-c4ccccc4)cn3c2C)CC1 | inconclusive: 23.1 µM [cytotoxic, single point]
CCN(CC)c1nc2c(S(=O)(=O)c3ccccc3)nnn2c2ccc(Cl)cc12 | inconclusive: 32.6 µM [cytotoxic, single point]
COc1ccccc1NC(=O)CN1C(=O)NC2(CCCCCCC2)C1=O | inconclusive: 18.4 µM [cytotoxic, partial curve, poor fit]
Cc1c(C(=O)N2CCCCC2)c(S(=O)(=O)NCCc2ccc(S(N)(=O)=O)cc2)c(C)n1C | inconclusive: 20.6 µM [rising, partial curve, poor fit]
CC1CCN(C(=O)c2ccccc2SCC(=O)NCC2CCCCC2)CC1 | inconclusive: 9.2 µM [cytotoxic, partial curve]
CN(Cc1ccccc1)N=Nc1nc[nH]c1C(N)=O | inactive
Cc1ccc(S(=O)(=O)N2CCCCC2)cc1C(=O)N1C(C)CCCC1C (stereo not given) | inactive
CN(CCc1ccccc1)C(C(=O)Nc1ccc2c(c1)OCCO2)c1ccnc2ccccc12 (stereo not given) | active: 23.1 µM
Clc1ccc(-c2nnc3sc(-c4ccc(Br)o4)nn23)cc1 | inconclusive: 20.6 µM [cytotoxic, partial curve, poor fit]
COc1ccc(S(=O)(=O)Nc2cccc(S(=O)(=O)N3CCCCCC3)c2)cc1 | inactive
CSc1nc2ccc(S(=O)(=O)N3CCCCC3)cc2s1 | inconclusive: 29.1 µM [cytotoxic, single point]
O=C(N/N=C/C=C/c1ccccc1)c1n[nH]c2c1CCC2 | active: 1.03 µM

Another view of some results above.
Structure (SMILES)	Potency
CC1CC(C)CN(CC(O)COCCOc2ccc(Br)cc2)C1 (stereo not given)	inconclusive: 16.4 µM [cytotoxic, partial curve, poor fit]
Cc1ccc(-c2cc(C(=O)O)n[nH]2)s1	inactive
Cc1ccc(S(=O)(=O)N2CCCCC2)cc1C(=O)N1C(C)CCCC1C (stereo not given)	inactive
Clc1ccc(-c2nnc3sc(-c4ccc(Br)o4)nn23)cc1	inconclusive: 20.6 µM [cytotoxic, partial curve, poor fit]
O=C(N/N=C/C=C/c1ccccc1)c1n[nH]c2c1CCC2	active: 1.03 µM

Sorted by SMILES length (high to low): part of the list above
Structure (SMILES) | Potency
Cc1cccc(NC(=O)CSc2nnc([C@@H]3CCCN3C(=O)OC(C)(C)C)o2)c1C | inconclusive: 18.4 µM [cytotoxic, single point]
Cc1ccc(-c2cc(C(=O)O)n[nH]2)s1 | inactive
Cc1cc(C)c2cc(C=O)c(Cl)nc2c1 | inconclusive: 16.4 µM [cytotoxic, single point]
